Laboratory results as given in patent US20080161223A1, “Spirobornyl-2,4-(1,3-Dioxanes)] And Their Uses As Fragrance Ingredients” (GIVAUDAN SA, priority 2005, published 2008).

Experiment: Odour description (olfactory evaluation of the compound)
With `CC1OC[C@H](C)[C@]2(C[C@H]3CC[C@]2(C)C3(C)C)O1` (mixture of isomers) [Compound 1a, (1R,2S,2′R/S,4R,5′S)-1,2′,5′,7,7-Pentamethylspiro[bicyclo[2.2.1]heptane-2,4′-[1,3]dioxane]] the Odour description was “woody, ambery, fruity, rich, sweet”. For `CC1OCC(C)C2(CC3CCC2(C)C3(C)C)O1` (racemic) [Compound 1e, (1RS,2SR,2′RS/SR,4RS,5′RS/SR)-1,2′,5′,7,7-Pentamethylspiro[bicyclo[2.2.1]heptane-2,4′-[1,3]dioxane]], the Odour description was “ambery, woody, earthy/mossy, fruity”. With `CC1OCC(C)C2(CC3CCC2(C)C3(C)C)O1` (racemic) [Compound 1f, (1RS,2SR,2′RS/SR,4RS,5′RS/SR)-1,2′,5′,7,7-Pentamethylspiro[bicyclo[2.2.1]heptane-2,4′-[1,3]dioxane]] the Odour description was “woody, fruity, ambery”. In the case of `CCC1OCC(C)C2(CC3CCC2(C)C3(C)C)O1` (racemic) [Compound 1l, (1RS,2SR,2′RS/SR,4RS,5′RS/SR)-2′-Ethyl-1,5′,7,7-tetramethylspiro[bicyclo[2.2.1]-heptane-2,4′-[1,3]dioxane]], the Odour description is reported as “woody, ambery, fruity, carrot, sweet”. In the case of `CC(C)C1OCC(C)C2(CC3CCC2(C)C3(C)C)O1` (racemic) [Compound 1m, (1RS,2SR,2′RS/SR,4RS,5′SR)-2′-isopropyl-1,5′,7,7-tetramethylspiro[bicyclo[2.2.1]-heptane-2,4′-[1,3]dioxane]], the Odour description is reported as “ambery, woody, fruity, rich”. For `CC(C)C1OCC(C)C2(CC3CCC2(C)C3(C)C)O1` (racemic) [Compound 1n, (1RS,2SR,2′RS/SR,4RS,5′RS/SR)-2′-isopropyl-1,5′,7,7-tetramethylspiro [bicyclo[2.2.1]heptane-2,4′-[1,3]dioxane]], the Odour description was “fruity, woody, green”. With `CC1COC(C)(C)OC12CC1CCC2(C)C1(C)C` (racemic) [Compound 1q, (1RS,2SR,4RS,5′RS/SR)-1,2′,2′,5′,7,7-Hexamethylspiro[bicyclo[2.2. 1]heptane-2,4′-[1,3]dioxane]] the Odour description was “earthy/mossy, woody, vetiver aspect”. With `CC1OC(C)C(C)C2(CC3CCC2(C)C3(C)C)O1` (racemic) [Compound 1r, (1RS,2SR,2′RS/SR,4RS,5′RS/SR,6′RS/SR)-1,2′,5′,6′,7,7-Hexamethylspiro[bicyclo[2.2.1]heptane-2,4′-[1,3]dioxane]] the Odour description was “Woody, fruity, ambery, sweet, cedarwood”. In the case of `CC1OC(C)(C)OC2(CC3CCC2(C)C3(C)C)C1C` (racemic) [Compound 1s, (1RS,2SR,4RS,5′RS/SR,6′RS/SR)-1,2′,2′,5′,6′,7,7-Heptamethylspiro[bicyclo[2.2.1]heptane-2,4′-[1,3]dioxane]], the Odour description is reported as “Woody, earthy/mossy, cedarwood”. With `CCC1OC(C)OC2(CC3CCC2(C)C3(C)C)C1C` (racemic) [Compound 1t, (1RS,2SR,2′RS/SR,4RS,5′RS/SR,6′RS/SR)-6′-Ethyl-1,2′,5′,7,7-pentamethylspiro[bicyclo[2.2.1]heptane-2,4′-[1,3]dioxane]] the Odour description was “woody, fruity, green, pine, eucalyptus, cedarwood”. For `CCC1OC(C)(C)O[C@@]2(C[C@H]3CC[C@]2(C)C3(C)C)C1C` (mixture of isomers) [Compound 1u, (1RS,2SR,4RS,5′RS/SR,6′RS/SR)-6′-Ethyl-1,2′,2′,5′,7,7-hexamethylspiro[bicyclo[2.2.1]heptane-2,4′-[1,3]dioxane]], the Odour description was “floral, sweet, woody, cedarwood aspect”. For `CCC1COC(C)O[C@@]12C[C@H]1CC[C@]2(C)C1(C)C` (mixture of isomers) [Compound 1v, (1RS,2SR,2′RS/SR,4RS,5′RS/SR)-5′-Ethyl-1,2′,7,7-tetramethylspiro[bicyclo[2.2.1]heptane-2,4′-[1,3]dioxane]], the Odour description was “woody, ambery, fruity, slightly carrot-like”. For `C[C@H]1OC[C@H](C)[C@]2(C[C@H]3CC[C@]2(C)C3(C)C)O1` (single isomer, unassigned) [Compound 1b], the Odour description was “ambery, woody, dry, sweet, animalic”. In the case of `C[C@@H]1OC[C@H](C)[C@]2(C[C@H]3CC[C@]2(C)C3(C)C)O1` (single isomer, unassigned) [Compound 1c], the Odour description is reported as “dry, woody, cedarwood, ambery, warm, powdery”. For `C[C@H]1OC[C@@H](C)[C@]2(C[C@H]3CC[C@]2(C)C3(C)C)O1` [Compound 1d, (1R,2S,2′S,4R,5′R)-1,2′,5′,7,7-Pentamethylspiro[bicyclo[2.2.1]heptane-2,4′-[1,3]dioxane]], the Odour description was “ambery, woody, balsamic, green”. In the case of `CC[C@H]1OC[C@H](C)[C@]2(C[C@H]3CC[C@]2(C)C3(C)C)O1` [Compound 1g, (1R,2S,2′S,4R,5′S)-2′-Ethyl-1,5′,7,7-tetramethylspiro[bicyclo[2.2.1]heptane-2,4′-[1,3]dioxane]], the Odour description is reported as “woody, ambery, green, sweet, floral”. With `CC[C@@H]1OC[C@H](C)[C@]2(C[C@H]3CC[C@]2(C)C3(C)C)O1` [Compound 1h, (1R,2S,2′R,4R,5′S)-2′-Ethyl-1,5′,7,7-tetramethylspiro[bicyclo[2.2.1]heptane-2,4′-[1,3]dioxane]] the Odour description was “woody, green”. For `CC(C)[C@H]1OC[C@H](C)[C@]2(C[C@H]3CC[C@]2(C)C3(C)C)O1` [Compound 1i, (1R,2S,2′S,4R,5′S)-2′-Isopropyl-1,5′,7,7-tetramethylspiro[bicyclo[2.2.1]heptane-2,4′-[1,3]dioxane]], the Odour description was “woody, ambery, sweet, dry, cedarwood, creamy”. For `CC(C)[C@@H]1OC[C@H](C)[C@]2(C[C@H]3CC[C@]2(C)C3(C)C)O1` [Compound 1j, (1R,2S,2′R,4R,5′S)-2′-Isopropyl-1,5′,7,7-tetramethylspiro[bicyclo[2.2.1]heptane-2,4′-[1,3]dioxane]], the Odour description was “ambery, woody, green, floral”. For `CC(C)[C@H]1OC[C@@H](C)[C@]2(C[C@H]3CC[C@]2(C)C3(C)C)O1` [Compound 1k, (1R,2S,2′S,4R,5′R)-2′-isopropyl-1,5′,7,7-tetramethylspiro[bicyclo[2.2.1]heptane-2,4′-[1,3]dioxane]], the Odour description was “fruity, animalic, woody, touch ambrette seeds”. In the case of `C[C@H]1COC(C)(C)O[C@@]12C[C@H]1CC[C@]2(C)C1(C)C` [Compound 1o, (1R,2S,4R,5′S)-1,2′,2′,5′,7,7-hexamethylspiro[bicyclo[2.2.1]heptane-2,4′-[1,3]dioxane]], the Odour description is reported as “woody, ambery, camphoraceous, earthy/mossy”. With `C[C@@H]1COC(C)(C)O[C@@]12C[C@H]1CC[C@]2(C)C1(C)C` [Compound 1p, (1R,2S,4R,5′R)-1,2′,2′,5′,7,7-hexamethylspiro[bicyclo[2.2.1]heptane-2,4′-[1,3]dioxane]] the Odour description was “woody, agrestic, ambery, earthy/mossy, dry, cedarwood aspect”.
